PubChem BioAssay AID504594 (Broad Institute, 2011)
The whole screen tested about 2,000 compounds, of which fewer than 10 were called active.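 How the source made its calls: active means growth inhibition of at least 75% in every replicate, which also brings the mean inhibition to 75% or more; inconclusive means mean inhibition 75% or more but some replicate under 75%; inactive means the rest.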 This is one part of the list.

Test: reduced viability of yeast carrying PfHsp90 – S. cerevisiae, BacTiter-Glo luminescence, antimalarial PfHsp90 inhibitor project, primary screen (AID 504594);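 further: 0% = DMSO neutral control wells and 100% = 20 µM radicicol control wells; higher value means stronger growth inhibition because the sign is flipped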
Conditions: S. cerevisiae expressing PfHsp90, BacTiter-Glo growth, 48 h; at 9.4 µM; active compounds read high

Row | SMILES | growth inhibition
1 | CC1=CC(C)(C)N2C(=O)C3(NCCc4c3[nH]c3ccccc43)c3cc(C)cc1c32 (stereo not drawn) | inactive: -1.26%
2 | COc1ccc(CC(=O)N2CC3(C)CC2CC(C)(C)C3)cc1OC (stereo not drawn) | inactive: 12.2%
3 | O=c1cnn([C@@H]2O[C@H](CO)[C@@H](O)[C@H]2O)c(=O)[nH]1 | inactive: 4.81%
4 | C=CCN1C(=O)c2oc3ccccc3c(=O)c2C1c1ccc(O)c(OC)c1 (stereo not drawn) | inactive: -10.9%
5 | COc1cccc2c(=O)c3ccccc3oc12 | inactive: -11.8%
6 | CN(C)CCN(Cc1ccccc1)c1ccccn1 | inactive: -3.86%
7 | CC1(C)C(=O)OC(c2cccs2)C2(CCCCC2)C1=O (stereo not drawn) | inactive: 1.41%
8 | CC(NC(=O)c1ccc(N2CCNCC2)c([N+](=O)[O-])c1)C12CC3CC(CC(C3)C1)C2 (stereo not drawn) | inactive: 1.77%
9 | Cn1c(=O)oc2cc(S(=O)(=O)N3CCc4ccccc4C3)ccc21 | inactive: -3.63%
10 | CC(NC(=O)OCc1ccccc1)C(=O)N1CC(O)CC1C(=O)O (stereo not drawn) | inactive: -2.18%
11 | COc1ccc(C(=O)Oc2ccc3c(C)cc(=O)oc3c2C(C)=O)cc1 | inactive: -0.103%
12 | NS(=O)(=O)c1ccc(CNC(=O)c2cc(-c3ccccc3)nc3ccccc23)cc1 | inactive: 2.94%
13 | Fc1ccc(NC(=S)Nc2ccccc2Cl)cc1 | inactive: 3.46%
14 | CC(=O)OC[C@H]1O[C@@H](n2ncc(=O)[nH]c2=O)[C@H](OC(C)=O)[C@@H]1OC(C)=O | inactive: 6.23%
15 | O=C(O)C1Sc2[nH]c(=O)sc2C2c3ccc(O)cc3OC(=O)C12 (stereo not drawn) | inactive: -1.06%
16 | CN1C(=O)C(O)(CC(=O)c2ccccc2O)c2cc(Br)ccc21 (stereo not drawn) | inactive: 1.22%
17 | COc1cc2c(cc1OC)C(=S)NC(C)(C)C2 | inactive: 0.946%
18 | COc1ccc(C2NC(=O)c3ccccc3N2)cc1OC (stereo not drawn) | inactive: -3.61%
19 | O=C(/C=C/c1ccco1)N1CCN(c2ccccc2)CC1 | inactive: 2.4%
20 | O=C(O)/C=C/c1ccc(O)c(O)c1 | inactive: 8.18%
21 | O=C(Nc1ccc(Cl)cn1)Nc1ccccc1Cl | inactive: -7.62%

Row | SMILES | growth inhibition
22 | C[N+](C)(C)CCCCCCCCCC[N+](C)(C)C | inactive: 3.9%
23 | Cc1[nH]c2ccccc2c1/C=C/c1nc2ccccc2c(=O)n1CCO | inactive: 2.99%
24 | CC1=C(/C=C/C(C)=C/C=C/C(C)=C/C(=O)O)C(C)(C)CCC1 | inactive: -3.35%
25 | O=C(Nc1ccccc1)c1ccccc1CCc1ccccc1 | inactive: -14.9%
26 | Cc1ccc(CN2CCN(CCCc3ccccc3)CC2CCO)cc1 (stereo not drawn) | inactive: -17.6%
27 | CCN(Cc1cnn(C)c1)Cc1nc(C(c2ccccc2)c2ccccc2)no1 | inactive: 6.67%
28 | CCCCCC#CCC#CCC#CCC#CCCCC(=O)O | inactive: -41.8%
29 | Cc1cc(=O)oc2cc(OC(C)C(=O)NCC3CCCO3)ccc12 (stereo not drawn) | inactive: -2.4%
30 | CCO/C([O-])=N/c1c[n+](N2CCOCC2)no1 | inactive: -3.56%
31 | COc1ccc(CCNc2ncnc3c2[nH]c2cc(OC)c(OC)cc23)cc1OC | inactive: 10%
32 | COCCOC(=O)c1c(C)oc2ccc(OCc3cc(C(=O)OC)oc3C)cc12 | inactive: 2.24%
33 | O=C1C(=O)c2ccccc2C(O)=C1c1ccccc1F | inactive: -6.57%
34 | COc1cc(C(=O)NCCCCCC(=O)O)cc(OC)c1OC | inactive: -10.6%
35 | COc1cc(OC)c(C2C(C#N)=C(N)OC3=C2C(=O)CC(C)(C)C3)cc1OC (stereo not drawn) | inactive: 12.3%
36 | COC(=O)c1cc(C(=O)NCCC(C)C)cc([N+](=O)[O-])c1 | inactive: 6.94%
37 | COc1cccc(-n2cc(CNCc3c(C(=O)N(C)C)nc4ccc(Cl)cn34)cn2)c1 | inactive: -7.02%
38 | CNS(=O)(=O)c1ccc(C)cc1 | inactive: -0.442%
39 | COC(=O)c1ccc2c(c1)C(=O)/C(=C/c1ccc(O)cc1)O2 | inactive: 5.17%
40 | CN(C)C(=O)C12CCC(C)(c3nc4ccccc4nc31)C2(C)C (stereo not drawn) | inactive: 17%
41 | C/C(=N\NC(=O)C1(C)CC1(Br)Br)c1ccc([N+](=O)[O-])cc1 (stereo not drawn) | inactive: 4.78%
42 | c1cnc(N2CCN(Cc3ccc4c(c3)OCO4)CC2)nc1 | inactive: -1.73%

Row | SMILES | growth inhibition
43 | CCC(CO)NCCNC(CC)CO (stereo not drawn) | inactive: 16.3%
44 | CC(C)[C@H]1CN(C)CCN1Cc1cn(C)nc1-c1cccc(Cl)c1 | inactive: -4.12%
45 | CC1CCN(CCOCCOc2ccccc2Br)CC1 | inactive: 13.2%
46 | CC(C)C(=O)Nc1c(O)c2ccccc2[nH]c1=O | inactive: -8.8%
47 | O=C(Nc1c(C(=O)O)[nH]c2ccccc12)NC1CCCCC1 | inactive: -6.79%
48 | CC1(C)CC(=O)c2c(nc3ccccc3c2N)C1 | inactive: -21%
49 | CCOc1cc(C)cc2oc(=O)cc(-c3ccccc3)c12 | inactive: 6.4%
50 | OC[C@H]1O[C@@H](n2cnc3c(NC4CCCC4)ncnc32)[C@H](O)[C@@H]1O | inactive: 7.42%
51 | C1COC(NC(C2CC2)C2CC2)=N1 | inactive: -5.96%
52 | NC(N)=N/N=C/c1ccc(OS(=O)(=O)c2ccccc2)cc1 | inactive: 5.68%
53 | O=C1c2ccccc2C(=O)N1/N=C/c1ccc(Oc2ccc([N+](=O)[O-])cn2)cc1 | inactive: 4.52%
54 | COc1ccc(CCN=C(N)C(C)c2ccccc2)cc1OC (stereo not drawn) | inactive: 11.4%
55 | COC1CCN(C(=O)c2ccc(OC3CCN(Cc4ccccn4)CC3)cc2)CC1 | inactive: 11.7%
56 | Cc1ccc(S(=O)(=O)Nc2ccc(S(=O)(=O)Nc3cc(C)nc(C)n3)cc2)cc1 | inactive: -2.59%
57 | CCN(CC)CCCNC(=O)C1c2ccccc2Oc2ccccc21 | inactive: 2.85%
58 | Cc1nc(N)sc1C(=O)N/N=C/c1ccco1 | inactive: -1.68%
59 | Cc1ccc(S(=O)(=O)N[C@@H](Cc2ccccc2)C(=O)CCl)cc1 | inactive: 63.2%
60 | COc1ccc(OCC(=O)N2c3ccc(C)cc3C3CN(C)CCC32)cc1 (stereo not drawn) | inactive: 13.7%
61 | COc1cccc(CN2CCN(C(=O)c3ccc(-c4ccccc4)cc3)CC2)c1 | inactive: -6.01%
62 | C1CCC(C(CC2CCCCN2)C2CCCCC2)CC1 (stereo not drawn) | inactive: 12.9%
63 | Clc1ccc(OCCCN2CCCCC2)c(Br)c1 | inactive: 1.98%

Part of the list above in a different format.

| Row | SMILES | growth inhibition |
| --- | --- | --- |
| 9 | Cn1c(=O)oc2cc(S(=O)(=O)N3CCc4ccccc4C3)ccc21 | inactive: -3.63% |
| 35 | COc1cc(OC)c(C2C(C#N)=C(N)OC3=C2C(=O)CC(C)(C)C3)cc1OC (stereo not drawn) | inactive: 12.3% |
| 55 | COC1CCN(C(=O)c2ccc(OC3CCN(Cc4ccccn4)CC3)cc2)CC1 | inactive: 11.7% |
| 58 | Cc1nc(N)sc1C(=O)N/N=C/c1ccco1 | inactive: -1.68% |
